{
  "source": "paper PMC12481249",
  "test_system": "MCF-7 Br Ca cell line",
  "assay": "MTT cytotoxicity (antiproliferative) assay",
  "details": "Homo sapiens, MCF7, read-out: IC50 MCF-7, MTT, MCF-7 Br Ca cell line, mean ± SD (n = 3)",
  "data": [
    {"smiles": "CC/C(=C(\\c1ccccc1)c1ccc(OCCN(C)C)cc1)c1ccccc1", "note": "[Tam, Tamoxifen, reference compound]", "values": [
      {"measurement": "IC50", "result": "10.5 ± 0.23", "unit": "µM"}
    ]}
  ]
}
